# Laboratory results: PubChem BioAssay AID540256 (National Center for Advancing Translational Sciences (NCATS), 2011)
# Hit rate of the full screen: of about 300,000 compounds, about 3,700 (1.2%) were called active. Inconclusive results, whose numbers are uncertain, are shown with a selection of clear calls. Calls come from the whole dose curve; tested in HEK293 cells. Potencies beside an inconclusive call are fits to weak or partial responses and may not hold up.
# Test: qHTS for Inhibitors of binding or entry into cells for Lassa Virus; note: nearly all actives have a fitted effect of over 50% in size
# Details: Lassa virus pseudotype entry inhibition, cell reporter; series mostly up to 37.9 µM
# Potency is the fitted concentration of half-maximal effect.
row,SMILES,Potency
1,COc1ccccc1NS(=O)(=O)c1cc(NC(=O)C2CCCC2)ccc1N1CCOCC1,"inconclusive: 35.5 µM [inhibitor, partial curve, poor fit]"
2,COc1ccc(C(=O)Nc2cc(C)on2)cc1,"inconclusive: 0.651 µM [activator, partial curve, poor fit]"
3,Cc1nc2cc(S(=O)(=O)N3CCC(C(=O)O)CC3)ccc2n1C1CCCC1,inactive
4,Cc1ccc(C(C)NC(=O)Cc2cccs2)c(C)c1 (stereo not given),"inconclusive: 1.26 µM [inhibitor, single point]"
5,CCOC(=O)c1c(NC(=O)Cc2cccs2)sc(C(=O)NC2CCCC2)c1C,inactive
6,CCOC(=O)C1=C(N)OC2=C(C(=O)CCC2)C12C(=O)N(C)c1ccccc12 (stereo not given),inactive
7,CCOc1ccc(-c2nc(SCC(=O)NCCCOC)c(-c3ccccc3)[nH]2)cc1,"inconclusive: 6.31 µM [activator, single point]"
8,COc1ccccc1NC(=O)CNC(=O)CC12CC3CC(CC(C3)C1)C2,inactive
9,Cc1ccc(S(=O)(=O)NC(C)(C)CSc2nnc(Nc3ccccc3)s2)cc1,"inconclusive: 20.6 µM [inhibitor, single point]"
10,CC1CCC(NC(=O)c2cc3c(s2)CS(=O)(=O)C3)CC1 (stereo not given),inactive
11,COc1ccc(/C=C/C(=O)OCC(=O)NC2CCCC2)cc1OC,inactive
12,CC(C)c1nnc(NC(=O)CS(=O)(=O)Cc2ccccc2)s1,inactive
13,CC(=O)Nc1ccc(S(=O)(=O)NCCSCc2ccco2)cc1,"inconclusive: 23.1 µM [inhibitor, single point]"
14,CC1(c2ccc([N+](=O)[O-])cc2)Nc2ccccc2S1 (stereo not given),inactive
15,CCCOc1ccc(/C=N/NC(=O)C(C)Sc2ccccn2)cc1OCC (stereo not given),"inconclusive: 10 µM [inhibitor, partial curve, poor fit]"
16,N#C/C(=C\c1c[nH]c2ccccc12)C(=O)c1ccc(O)c(O)c1,"inconclusive: 9.96 µM [inhibitor, full curve]"
17,COc1ccccc1CN1CC(C(=O)N2CCCCCCC2)CCC1=O (stereo not given),inactive
18,Cc1ccc2nc(C)c(C(=O)N/N=C/c3cccs3)n2c1,"inconclusive: 13 µM [inhibitor, partial curve, poor fit]"
19,CCc1cccc(CC)c1NC(=O)c1cccc(N)c1,"inconclusive: 0.73 µM [activator, single point]"
20,COc1ccc(C(=O)Nc2ccc(N3CCCC3)cc2)cc1Br,"inconclusive: 15.8 µM [activator, single point]"
21,O=CN1CCC(=O)N(Cc2ccccc2)c2ccccc21,"inconclusive: 1.64 µM [activator, partial curve, poor fit]"
22,CC(C)(C)C(=O)c1cnc(Nc2ccccc2)s1,"inconclusive: 35.5 µM [inhibitor, single point]"
23,COc1cccc(C(C[N+](=O)[O-])c2c(C)[nH]n(-c3ccccc3)c2=O)c1 (stereo not given),inactive
24,O=C1c2ccccc2C(=O)C1Cc1cccc2ccccc12,inactive

# Quoted from the listing.
# Value for CC(C)c1nnc(NC(=O)CS(=O)(=O)Cc2ccccc2)s1 under Potency: inactive
# Value for CC1CCC(NC(=O)c2cc3c(s2)CS(=O)(=O)C3)CC1 (stereo not given) under Potency: inactive
# Value for CCOc1ccc(-c2nc(SCC(=O)NCCCOC)c(-c3ccccc3)[nH]2)cc1 under Potency: inconclusive: 6.31 µM [activator, single point]
# Value for O=CN1CCC(=O)N(Cc2ccccc2)c2ccccc21 under Potency: inconclusive: 1.64 µM [activator, partial curve, poor fit]
# Value for COc1ccc(C(=O)Nc2cc(C)on2)cc1 under Potency: inconclusive: 0.651 µM [activator, partial curve, poor fit]
# Value for CCc1cccc(CC)c1NC(=O)c1cccc(N)c1 under Potency: inconclusive: 0.73 µM [activator, single point]

# Additional results follow.

row,SMILES,Potency
1,Cc1cc(C)cc(N(C(=O)CNS(=O)(=O)c2ccccc2)C(C(=O)NCc2ccccc2)c2ccc(C)o2)c1 (stereo not given),active: 11.6 µM
2,CCOc1ccc(S(=O)(=O)N2CCN(C(=O)c3oc4ccccc4c3C)CC2)cc1,"inconclusive: 35.5 µM [inhibitor, single point]"
3,CCOc1cccc(=NC2CCCCC2)c2c(C)[nH]c(C)c12,"inconclusive: 35.5 µM [inhibitor, single point]"
4,O=C(COC(=O)CCc1c[nH]c2ccccc12)NCc1ccccc1,"inconclusive: 1.58 µM [inhibitor, partial curve, poor fit]"
5,NC(=S)n1[nH]c(-c2ccc([N+](=O)[O-])cc2)c(N=Nc2ccc(Cl)cc2)c1=O,"inconclusive: 2.82 µM [inhibitor, full curve, poor fit]"
6,Cc1cc(C)cc(-n2c(SCC(=O)NCC3CCCO3)nc3c([nH]c4ccccc43)c2=O)c1 (stereo not given),"inconclusive: 1.78 µM [inhibitor, partial curve, poor fit]"
7,O=C(Nc1cc(S(=O)(=O)N2CCOCC2)ccc1N1CCOCC1)c1cc2c(s1)CCC2,"inconclusive: 22.4 µM [inhibitor, partial curve, poor fit]"
8,CCCC1CC(C)(C(=O)CSc2n[nH]c(-c3ccccc3)n2)OC1=O (stereo not given),"inconclusive: 8.2 µM [inhibitor, partial curve, poor fit]"
9,CCOc1ccc(-c2cc(NC(=O)c3ccc(C)cc3)c(C(=O)OC)s2)cc1,"inconclusive: 3.98 µM [activator, partial curve, poor fit]"
10,Cn1c(=O)c(C(=O)NC2CCCCCCC2)c(O)c2ccccc21,inactive
11,O=C(/C=C/Nc1ccc(F)cc1)c1ccco1,"inconclusive: 35.5 µM [inhibitor, single point]"
12,CC(C)C[C@H](NC(=O)OC(C)(C)C)c1nnc(SCc2ccccc2)o1,"inconclusive: 10.3 µM [inhibitor, partial curve, poor fit]"
13,CCCCC(=O)N/N=C/c1c(O)n(CC)c(=S)n(CC)c1=O,"inconclusive: 23.1 µM [inhibitor, single point]"
14,CNC(=O)c1ccc(-n2nc(C)cc2-c2ccccc2)cc1,inactive
15,CCOC(=O)N(O)c1ccc(C=Cc2ccccc2)cc1,active: 0.631 µM
16,CC(C)=NOc1nc(N2CCOCC2)nc(N2CCOCC2)n1,"inconclusive: 22.4 µM [inhibitor, single point]"
17,Cc1c(NC(=O)c2ccccc2N)cccc1C(=O)O,inactive
18,CC(=O)C(Cc1ccc(Cl)nc1)(Cc1ccc(Cl)nc1)C(C)=O,"inconclusive: 1.58 µM [activator, partial curve, poor fit]"
19,Brc1cnc(N2CCCCC2)nc1N1CCOCC1,inactive
20,CCOC(=O)C1CCCN(C(=O)c2sc3nc(C)nc(N(CC)CC)c3c2C)C1 (stereo not given),"inconclusive: 9.2 µM [inhibitor, partial curve]"
21,COc1ccc(CCNC(=O)COc2ccc(-c3ccccc3)cc2)cc1OC,inactive
22,CCn1nc(/C=C/c2ccccc2)nc2c(=O)n(C)c(=O)nc1-2,active: 7.94 µM
23,CC(C)CNC(=O)c1ccccc1SCC(=O)NC12CC3CC(CC(C3)C1)C2,"inconclusive: 6.31 µM [inhibitor, single point]"
24,Cc1ccc(S(=O)(=O)NCC(NCc2ccc(F)cc2)c2ccccc2)cc1 (stereo not given),inactive

row,SMILES,Potency
1,CCCCOc1ccc(-c2ncc(Cl)cn2)cc1,"inconclusive: 0.0046 µM [activator, full curve, poor fit]"
2,Cc1ccn2cc(CNS(=O)(=O)c3cccs3)nc2c1,inactive
3,COc1ccc(N2C(=O)c3ccccc3NC23CCCCC3)cc1,inactive
4,CC(C)c1ccc(NS(=O)(=O)c2ccc3[nH]cc(C(=O)N4CCCC4)c(=O)c3c2)cc1,"inconclusive: 3.55 µM [activator, full curve]"
5,CC(=O)NC(=C(Cl)Cl)S(=O)(=O)c1ccccc1,"inconclusive: 3.55 µM [inhibitor, partial curve, poor fit]"
6,Cc1ccc2cccc(NC(=O)c3ccc(Br)o3)c2n1,"inconclusive: 20.6 µM [inhibitor, single point]"
7,CN(C)S(=O)(=O)c1cccc(NC(=O)c2ccc3nccnc3c2)c1,inactive
8,Cc1ccc(OCc2nnc(SCc3cc(=O)[nH]c4ccccc34)n2-c2ccccc2)cc1,"inconclusive: 28.2 µM [inhibitor, single point]"
9,CCOC(=O)Nc1ccc2c(c1)Sc1ccccc1N2C(=O)CCN1CCOCC1,"inconclusive: 35.5 µM [inhibitor, single point]"
10,COc1ccc(/C=C(\NC(=O)c2ccccc2)C(=O)NCCC(=O)O)cc1,"inconclusive: 1.26 µM [inhibitor, single point]"
11,Cc1nn(-c2ccccc2)c(N)c1N=Nc1ccc2ccccc2c1,"inconclusive: 12.6 µM [activator, partial curve, poor fit]"
12,O=C1NC(=O)C(CCc2ccncc2)(CCc2ccncc2)C(=O)N1C1CCCCC1,"inconclusive: 5.01 µM [inhibitor, partial curve]"
13,CC1CCCN(CCCCOc2cccc(Br)c2)C1 (stereo not given),active: 3.26 µM
14,CCc1ccc(NC(=O)C(=O)NCC(c2cccnc2)N2CCN(C)CC2)cc1 (stereo not given),"inconclusive: 22.4 µM [inhibitor, single point]"
15,Cc1ccc2nc(Cl)c(CN(Cc3cccs3)C(=O)C3CC3)cc2c1,"inconclusive: 0.0065 µM [inhibitor, full curve, poor fit]"
16,O=C(Nc1ccc2oc(-c3cccnc3)nc2c1)c1ccc(-c2ccccc2)o1,"inconclusive: 35.5 µM [inhibitor, single point]"
17,O=C(COC(=O)c1cccnc1Cl)NC12CC3CC(CC(C3)C1)C2,"inconclusive: 1.12 µM [activator, single point]"
18,COc1cc(C2SCC(=O)N2c2nnc(C34CC5CC(CC(C5)C3)C4)s2)cc(OC)c1OC (stereo not given),inactive
19,O=C1CSc2ccc(C(=O)NCCC3=CCCCC3)cc2N1,"inconclusive: 1.83 µM [activator, partial curve, poor fit]"
20,COc1ccccc1/C=C1\SC(=S)N(CCC(=O)NCCc2ccc(O)cc2)C1=O,"inconclusive: 25.1 µM [inhibitor, single point]"
21,Cc1nn(Cc2ccc([N+](=O)[O-])cc2)c(=O)n1-c1cccc(Cl)c1,inactive
22,Cc1ccc(C(=O)NCc2nc3ccccc3[nH]2)o1,"inconclusive: 8.91 µM [activator, partial curve, poor fit]"
